Measurements reported in PubChem BioAssay AID1224830 (NIAID, 2016)
In all, the deposit lists about 18,000 reagents; shown is a random part of them. Over the whole deposit, about 2,900 (16%) are marked active. 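Calls are made per well; low scores hint the gene aids the LPS response, high scores that it dampens it.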 Repeated entries: four replicate wells of each siRNA pool.

Purpose: 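Host factors that control LPS-induced TNF expression in human macrophages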 (primary screen)
System: human THP-1 monocytic leukaemia cells, TNF dual-luciferase reporter clone, PMA-differentiated to macrophage-like cells
Reagent: siRNA pool against human genes, 50 nM
Time to read-out: LPS for 4 h, given about 3 days after siRNA transfection
Treatment: bacterial LPS (TLR4 ligand), 10 ng/ml
Measured: 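Ratio of firefly to renilla light, scaled to the plate median and expressed as a robust z-score per replicate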
Scale: TNF reporter robust z-score: higher = stronger TNF reporter response to LPS
Call rule: 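Each well counts as active if its z-score is over 2.8 or under -1.5; controls are left without a call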

Gene | TNF reporter robust z-score | Outcome
TMPRSS13 (transmembrane serine protease 13) | -0.58 | inactive
TMPRSS13 (transmembrane serine protease 13) | -0.77 | inactive
TMPRSS13 (transmembrane serine protease 13) | -1.02 | inactive
TMPRSS13 (transmembrane serine protease 13) | -0.19 | inactive
CNTN5 (contactin 5) | -0.66 | inactive
CNTN5 (contactin 5) | -1.29 | inactive
CNTN5 (contactin 5) | -0.43 | inactive
CNTN5 (contactin 5) | -0.39 | inactive
PTGR3 (prostaglandin reductase 3) | 0.95 | inactive
PTGR3 (prostaglandin reductase 3) | 0.64 | inactive
PTGR3 (prostaglandin reductase 3) | 2.65 | inactive
PTGR3 (prostaglandin reductase 3) | 0.49 | inactive
EGFR (epidermal growth factor receptor) | -1.46 | inactive
EGFR (epidermal growth factor receptor) | -0.94 | inactive
EGFR (epidermal growth factor receptor) | -1.44 | inactive
EGFR (epidermal growth factor receptor) | -1.43 | inactive
RASGEF1B (RasGEF domain family member 1B) | 1.51 | inactive
RASGEF1B (RasGEF domain family member 1B) | 0.46 | inactive
RASGEF1B (RasGEF domain family member 1B) | 0.72 | inactive
RASGEF1B (RasGEF domain family member 1B) | 6.55 | active
PRKAB1 (protein kinase AMP-activated non-catalytic subunit beta 1) | -0.35 | inactive
PRKAB1 (protein kinase AMP-activated non-catalytic subunit beta 1) | -0.73 | inactive
PRKAB1 (protein kinase AMP-activated non-catalytic subunit beta 1) | -1.36 | inactive
PRKAB1 (protein kinase AMP-activated non-catalytic subunit beta 1) | 2.6 | inactive
OR4D1 (olfactory receptor family 4 subfamily D member 1) | -0.81 | inactive
OR4D1 (olfactory receptor family 4 subfamily D member 1) | -1.12 | inactive
OR4D1 (olfactory receptor family 4 subfamily D member 1) | -0.75 | inactive
OR4D1 (olfactory receptor family 4 subfamily D member 1) | -1 | inactive
DOT1L (DOT1 like histone lysine methyltransferase) | 1.91 | inactive
DOT1L (DOT1 like histone lysine methyltransferase) | -0.19 | inactive
DOT1L (DOT1 like histone lysine methyltransferase) | 0.71 | inactive
DOT1L (DOT1 like histone lysine methyltransferase) | 3.03 | active
SCTR (secretin receptor) | 3.13 | active
SCTR (secretin receptor) | 2.07 | inactive
SCTR (secretin receptor) | 1.77 | inactive
SCTR (secretin receptor) | -0.8 | inactive
HEXD (hexosaminidase D) | -0.43 | inactive
HEXD (hexosaminidase D) | -0.01 | inactive
HEXD (hexosaminidase D) | -0.46 | inactive
HEXD (hexosaminidase D) | -0.21 | inactive
MGAM (maltase-glucoamylase) | -1.02 | inactive
MGAM (maltase-glucoamylase) | -0.42 | inactive
MGAM (maltase-glucoamylase) | -0.3 | inactive
MGAM (maltase-glucoamylase) | 0.52 | inactive
TNNT2 (troponin T2, cardiac type) | -1.25 | inactive
TNNT2 (troponin T2, cardiac type) | 0.14 | inactive
TNNT2 (troponin T2, cardiac type) | -0.91 | inactive
TNNT2 (troponin T2, cardiac type) | -0.71 | inactive
CLDN12 (claudin 12) | 0.21 | inactive
CLDN12 (claudin 12) | 0.8 | inactive
CLDN12 (claudin 12) | 0.74 | inactive
CLDN12 (claudin 12) | 0.92 | inactive
ASB11 (ankyrin repeat and SOCS box containing 11) | -1.37 | inactive
ASB11 (ankyrin repeat and SOCS box containing 11) | 1 | inactive
ASB11 (ankyrin repeat and SOCS box containing 11) | -0.43 | inactive
ASB11 (ankyrin repeat and SOCS box containing 11) | -0.44 | inactive
PRY2 (PTPN13 like Y-linked 2) | 0.48 | inactive
PRY2 (PTPN13 like Y-linked 2) | 0.28 | inactive
PRY2 (PTPN13 like Y-linked 2) | 0.3 | inactive
PRY2 (PTPN13 like Y-linked 2) | 0.32 | inactive
OLFM3 (olfactomedin 3) | 2.08 | inactive
OLFM3 (olfactomedin 3) | 1.63 | inactive
OLFM3 (olfactomedin 3) | -0.13 | inactive
OLFM3 (olfactomedin 3) | 0.13 | inactive
ZBED3 (zinc finger BED-type containing 3) | 0.07 | inactive
ZBED3 (zinc finger BED-type containing 3) | -0.77 | inactive
ZBED3 (zinc finger BED-type containing 3) | -0.12 | inactive
ZBED3 (zinc finger BED-type containing 3) | -0.52 | inactive
RPS6KA2 (ribosomal protein S6 kinase A2) | 0.63 | inactive
RPS6KA2 (ribosomal protein S6 kinase A2) | 1.88 | inactive
RPS6KA2 (ribosomal protein S6 kinase A2) | 2.3 | inactive
RPS6KA2 (ribosomal protein S6 kinase A2) | 2.37 | inactive
FCMR (Fc mu receptor) | -0.17 | inactive
FCMR (Fc mu receptor) | -0.71 | inactive
FCMR (Fc mu receptor) | -0.97 | inactive
FCMR (Fc mu receptor) | 0.28 | inactive
LAP3 (leucine aminopeptidase 3) | -0.49 | inactive
LAP3 (leucine aminopeptidase 3) | 0.23 | inactive
LAP3 (leucine aminopeptidase 3) | -0.92 | inactive
LAP3 (leucine aminopeptidase 3) | -0.65 | inactive
ZNF345 (zinc finger protein 345) | 0.18 | inactive
ZNF345 (zinc finger protein 345) | 0.66 | inactive
ZNF345 (zinc finger protein 345) | -0.12 | inactive
ZNF345 (zinc finger protein 345) | 1.01 | inactive
VSIG4 (V-set and immunoglobulin domain containing 4) | -1.43 | inactive
VSIG4 (V-set and immunoglobulin domain containing 4) | -0.61 | inactive
VSIG4 (V-set and immunoglobulin domain containing 4) | -0.81 | inactive
VSIG4 (V-set and immunoglobulin domain containing 4) | -0.77 | inactive
MRM3 (mitochondrial rRNA methyltransferase 3) | -1.96 | active
MRM3 (mitochondrial rRNA methyltransferase 3) | -1.4 | inactive
MRM3 (mitochondrial rRNA methyltransferase 3) | -1.8 | active
MRM3 (mitochondrial rRNA methyltransferase 3) | -1.41 | inactive
GCM2 (GCM transcription factor 2) | 0.58 | inactive
GCM2 (GCM transcription factor 2) | 0.59 | inactive
GCM2 (GCM transcription factor 2) | -0.57 | inactive
GCM2 (GCM transcription factor 2) | 0.47 | inactive
ZNF229 (zinc finger protein 229) | -0.18 | inactive
ZNF229 (zinc finger protein 229) | 0.86 | inactive
ZNF229 (zinc finger protein 229) | 1.54 | inactive
ZNF229 (zinc finger protein 229) | 0.03 | inactive
NXT1 (nuclear transport factor 2 like export factor 1) | -1.8 | active
NXT1 (nuclear transport factor 2 like export factor 1) | -1.23 | inactive
NXT1 (nuclear transport factor 2 like export factor 1) | -0.92 | inactive
NXT1 (nuclear transport factor 2 like export factor 1) | -0.69 | inactive
SYT14P1 (synaptotagmin 14 pseudogene 1) | 0.74 | inactive
SYT14P1 (synaptotagmin 14 pseudogene 1) | 0.52 | inactive
SYT14P1 (synaptotagmin 14 pseudogene 1) | -0.48 | inactive
SYT14P1 (synaptotagmin 14 pseudogene 1) | -0.62 | inactive
IFT70B (intraflagellar transport 70B) | -0.57 | inactive
IFT70B (intraflagellar transport 70B) | -0.83 | inactive
IFT70B (intraflagellar transport 70B) | -0.11 | inactive
IFT70B (intraflagellar transport 70B) | -0.38 | inactive
